According to patent US20180148718:
The exact form of at least one protein or probe is not confirmed. Where cells or extracts were used, other partners may take part. For part of these data: Tags and fusion partners may be left off the protein sequences shown.

Sequences of proteins named here, by UniProt entry; tags and fusion partners are left off. A change or cut given only in a name is not applied to a line headed by its entry. Residues count along the entry.
UniProt Q15233: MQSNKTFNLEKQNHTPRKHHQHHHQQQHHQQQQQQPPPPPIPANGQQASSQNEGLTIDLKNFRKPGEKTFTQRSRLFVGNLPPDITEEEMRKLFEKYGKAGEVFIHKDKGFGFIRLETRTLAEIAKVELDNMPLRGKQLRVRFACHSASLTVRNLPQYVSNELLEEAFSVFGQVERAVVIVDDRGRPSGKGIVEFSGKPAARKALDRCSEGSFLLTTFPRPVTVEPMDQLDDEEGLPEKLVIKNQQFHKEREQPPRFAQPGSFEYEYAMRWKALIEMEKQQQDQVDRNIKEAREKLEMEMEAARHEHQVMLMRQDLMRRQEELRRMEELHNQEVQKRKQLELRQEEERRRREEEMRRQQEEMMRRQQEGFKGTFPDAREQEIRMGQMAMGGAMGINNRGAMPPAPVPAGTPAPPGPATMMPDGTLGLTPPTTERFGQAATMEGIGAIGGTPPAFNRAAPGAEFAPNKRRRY
UniProt Q96CX2, 2-325: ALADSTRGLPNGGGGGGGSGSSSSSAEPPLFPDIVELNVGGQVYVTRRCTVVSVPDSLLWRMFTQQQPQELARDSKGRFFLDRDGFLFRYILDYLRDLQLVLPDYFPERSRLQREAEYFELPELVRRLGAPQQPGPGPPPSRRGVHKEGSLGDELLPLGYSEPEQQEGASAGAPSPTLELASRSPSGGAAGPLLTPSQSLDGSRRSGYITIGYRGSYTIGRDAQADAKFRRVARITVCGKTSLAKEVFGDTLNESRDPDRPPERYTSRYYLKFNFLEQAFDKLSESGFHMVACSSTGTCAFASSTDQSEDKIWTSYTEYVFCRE
UniProt P23246: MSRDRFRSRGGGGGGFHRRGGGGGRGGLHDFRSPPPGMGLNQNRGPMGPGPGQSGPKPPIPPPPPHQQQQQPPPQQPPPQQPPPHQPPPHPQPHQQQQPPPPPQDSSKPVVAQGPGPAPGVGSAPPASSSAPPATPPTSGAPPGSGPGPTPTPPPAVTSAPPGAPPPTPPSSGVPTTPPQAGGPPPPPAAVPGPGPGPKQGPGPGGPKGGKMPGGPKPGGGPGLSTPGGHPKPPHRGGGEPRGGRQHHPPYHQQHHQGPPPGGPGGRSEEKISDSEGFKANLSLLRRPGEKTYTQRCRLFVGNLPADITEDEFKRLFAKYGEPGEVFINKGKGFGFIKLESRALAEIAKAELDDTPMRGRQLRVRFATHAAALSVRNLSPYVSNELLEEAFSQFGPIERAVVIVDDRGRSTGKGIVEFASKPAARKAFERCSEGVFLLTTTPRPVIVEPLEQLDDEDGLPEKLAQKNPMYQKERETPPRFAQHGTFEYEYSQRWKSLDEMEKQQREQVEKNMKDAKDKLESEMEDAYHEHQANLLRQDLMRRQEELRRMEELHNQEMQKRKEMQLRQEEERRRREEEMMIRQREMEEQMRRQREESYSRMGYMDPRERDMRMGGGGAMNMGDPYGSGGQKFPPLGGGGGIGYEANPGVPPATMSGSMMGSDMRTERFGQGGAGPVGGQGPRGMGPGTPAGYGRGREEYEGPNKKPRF
UniProt P12956, 2-609: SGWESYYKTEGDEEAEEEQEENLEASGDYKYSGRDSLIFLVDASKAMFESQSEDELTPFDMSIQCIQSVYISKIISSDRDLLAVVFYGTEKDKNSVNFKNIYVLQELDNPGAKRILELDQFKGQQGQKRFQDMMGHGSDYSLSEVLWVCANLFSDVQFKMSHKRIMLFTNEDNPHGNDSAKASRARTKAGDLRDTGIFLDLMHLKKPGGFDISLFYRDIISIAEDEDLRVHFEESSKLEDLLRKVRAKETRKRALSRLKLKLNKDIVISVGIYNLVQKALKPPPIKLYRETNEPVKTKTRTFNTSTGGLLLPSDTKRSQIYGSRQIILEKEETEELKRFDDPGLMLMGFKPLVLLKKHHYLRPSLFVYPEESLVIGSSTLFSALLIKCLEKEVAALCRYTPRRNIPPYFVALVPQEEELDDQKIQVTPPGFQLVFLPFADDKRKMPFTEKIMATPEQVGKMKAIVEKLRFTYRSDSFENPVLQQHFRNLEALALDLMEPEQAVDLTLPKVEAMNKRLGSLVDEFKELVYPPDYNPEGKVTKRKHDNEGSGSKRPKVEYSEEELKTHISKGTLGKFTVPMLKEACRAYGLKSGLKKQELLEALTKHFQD
UniProt P05455: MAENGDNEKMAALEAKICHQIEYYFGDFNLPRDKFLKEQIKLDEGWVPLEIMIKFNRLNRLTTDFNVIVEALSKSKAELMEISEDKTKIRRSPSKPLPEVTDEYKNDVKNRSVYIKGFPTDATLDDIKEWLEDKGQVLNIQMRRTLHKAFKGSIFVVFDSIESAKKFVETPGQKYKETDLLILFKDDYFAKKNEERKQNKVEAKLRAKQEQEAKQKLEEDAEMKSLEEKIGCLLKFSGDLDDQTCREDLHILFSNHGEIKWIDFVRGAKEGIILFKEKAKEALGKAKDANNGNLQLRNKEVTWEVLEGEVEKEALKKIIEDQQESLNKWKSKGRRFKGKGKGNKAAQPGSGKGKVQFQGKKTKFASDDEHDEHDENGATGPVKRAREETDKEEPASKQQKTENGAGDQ
UniProt P13010, 2-732: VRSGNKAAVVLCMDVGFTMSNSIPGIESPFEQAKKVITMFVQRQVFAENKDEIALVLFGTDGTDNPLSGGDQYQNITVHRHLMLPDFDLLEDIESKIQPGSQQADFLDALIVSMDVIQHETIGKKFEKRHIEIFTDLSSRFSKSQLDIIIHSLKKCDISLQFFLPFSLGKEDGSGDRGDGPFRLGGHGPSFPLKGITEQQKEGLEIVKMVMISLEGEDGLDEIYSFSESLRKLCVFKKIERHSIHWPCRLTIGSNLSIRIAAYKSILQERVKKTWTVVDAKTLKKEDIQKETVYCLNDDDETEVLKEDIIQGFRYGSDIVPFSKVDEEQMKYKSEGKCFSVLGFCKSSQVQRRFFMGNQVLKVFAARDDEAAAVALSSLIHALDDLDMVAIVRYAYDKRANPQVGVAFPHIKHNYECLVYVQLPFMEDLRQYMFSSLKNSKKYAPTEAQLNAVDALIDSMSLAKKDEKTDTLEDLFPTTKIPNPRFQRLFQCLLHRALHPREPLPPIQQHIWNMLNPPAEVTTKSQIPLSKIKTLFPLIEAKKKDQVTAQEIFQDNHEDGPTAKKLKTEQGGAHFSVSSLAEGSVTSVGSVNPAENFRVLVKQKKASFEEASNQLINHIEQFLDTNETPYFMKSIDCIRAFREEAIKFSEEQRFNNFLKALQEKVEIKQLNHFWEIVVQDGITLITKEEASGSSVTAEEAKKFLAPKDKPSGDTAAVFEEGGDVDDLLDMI

Experiments:
Assay in all cases: pull-down
ANXA2 (Homo sapiens) = ANXA2 (Homo sapiens) (UniProt P07355); settings: 5-10-5 gapmer, 2'-MOE wings 1-5 and 16-20, 2'-deoxy gap, all C 5mC, full PS; specific PS-ASO association, western confirmed; protein in an extract; protein details: HeLa cell extract; label: 5' biotin-TEG (386652), none (116847); synthetic backbone
P54nrb (Homo sapiens) = P54nrb (Homo sapiens) (UniProt Q15233); settings: full PS, protein in an extract, protein details: HeLa cell extract
NPM1 (Homo sapiens) = NPM1 (Homo sapiens) (UniProt P06748); settings: 5-10-5 gapmer, 2'-MOE wings 1-5 and 16-20, 2'-deoxy gap, all C 5mC, full PS; specific PS-ASO association, western confirmed; protein in an extract; protein details: HeLa cell extract; label: 5' biotin-TEG (386652), none (116847); synthetic backbone
[1] = molecular target: TCP1-epsilon (Homo sapiens) (UniProt P48643); settings: 5-10-5 gapmer, 2'-MOE wings 1-5 and 16-20, 2'-deoxy gap, all C 5mC, full PS; specific PS-ASO association, western confirmed; protein in an extract; protein details: HeLa cell extract; label: 5' biotin-TEG (386652), none (116847); synthetic backbone
VARS (Homo sapiens) = molecular target: T1, VARS (Homo sapiens) (UniProt P26640); settings: full PS, protein in an extract, protein details: HeLa cell extract
T1 sequence (looked up, limits assumed): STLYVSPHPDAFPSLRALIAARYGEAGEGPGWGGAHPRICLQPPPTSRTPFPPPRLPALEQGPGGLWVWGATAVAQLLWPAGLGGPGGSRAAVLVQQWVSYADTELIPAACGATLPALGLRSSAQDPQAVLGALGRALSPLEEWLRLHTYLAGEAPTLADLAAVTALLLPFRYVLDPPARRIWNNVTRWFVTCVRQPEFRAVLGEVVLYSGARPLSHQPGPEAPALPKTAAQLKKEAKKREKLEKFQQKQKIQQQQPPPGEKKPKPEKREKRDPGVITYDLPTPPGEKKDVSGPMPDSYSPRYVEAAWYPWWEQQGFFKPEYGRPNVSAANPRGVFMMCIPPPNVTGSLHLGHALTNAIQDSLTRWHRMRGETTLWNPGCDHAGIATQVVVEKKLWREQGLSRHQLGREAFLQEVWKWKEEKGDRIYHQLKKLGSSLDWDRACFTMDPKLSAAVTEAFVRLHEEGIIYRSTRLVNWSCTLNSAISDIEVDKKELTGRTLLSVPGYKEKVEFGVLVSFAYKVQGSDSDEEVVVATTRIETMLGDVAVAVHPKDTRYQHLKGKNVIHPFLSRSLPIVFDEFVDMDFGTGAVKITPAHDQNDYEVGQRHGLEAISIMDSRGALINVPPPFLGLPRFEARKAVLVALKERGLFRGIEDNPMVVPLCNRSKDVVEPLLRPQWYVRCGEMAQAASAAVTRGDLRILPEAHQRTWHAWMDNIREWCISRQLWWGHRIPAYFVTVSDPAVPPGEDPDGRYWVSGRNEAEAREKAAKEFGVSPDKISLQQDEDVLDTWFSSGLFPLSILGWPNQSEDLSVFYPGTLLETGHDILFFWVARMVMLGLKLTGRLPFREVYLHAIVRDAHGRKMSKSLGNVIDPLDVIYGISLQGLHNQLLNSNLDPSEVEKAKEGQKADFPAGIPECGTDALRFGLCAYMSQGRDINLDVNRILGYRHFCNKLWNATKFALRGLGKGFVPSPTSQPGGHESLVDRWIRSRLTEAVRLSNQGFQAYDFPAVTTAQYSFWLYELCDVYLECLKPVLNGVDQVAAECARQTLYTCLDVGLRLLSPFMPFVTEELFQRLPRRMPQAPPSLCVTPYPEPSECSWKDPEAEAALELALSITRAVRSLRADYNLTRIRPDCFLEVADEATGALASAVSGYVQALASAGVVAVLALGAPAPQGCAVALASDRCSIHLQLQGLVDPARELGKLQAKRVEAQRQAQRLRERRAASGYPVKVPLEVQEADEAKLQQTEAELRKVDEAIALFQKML

PSPC1 (Homo sapiens) = molecular target: T2, PSPC1 (Homo sapiens) (UniProt Q8WXF1); settings: 5-10-5 gapmer, 2'-MOE wings 1-5 and 16-20, 2'-deoxy gap, all C 5mC, full PS; specific PS-ASO association, western confirmed; protein in an extract; protein details: HeLa cell extract; label: 5' biotin-TEG (386652), none (116847); synthetic backbone
T2 sequence (looked up, limits assumed): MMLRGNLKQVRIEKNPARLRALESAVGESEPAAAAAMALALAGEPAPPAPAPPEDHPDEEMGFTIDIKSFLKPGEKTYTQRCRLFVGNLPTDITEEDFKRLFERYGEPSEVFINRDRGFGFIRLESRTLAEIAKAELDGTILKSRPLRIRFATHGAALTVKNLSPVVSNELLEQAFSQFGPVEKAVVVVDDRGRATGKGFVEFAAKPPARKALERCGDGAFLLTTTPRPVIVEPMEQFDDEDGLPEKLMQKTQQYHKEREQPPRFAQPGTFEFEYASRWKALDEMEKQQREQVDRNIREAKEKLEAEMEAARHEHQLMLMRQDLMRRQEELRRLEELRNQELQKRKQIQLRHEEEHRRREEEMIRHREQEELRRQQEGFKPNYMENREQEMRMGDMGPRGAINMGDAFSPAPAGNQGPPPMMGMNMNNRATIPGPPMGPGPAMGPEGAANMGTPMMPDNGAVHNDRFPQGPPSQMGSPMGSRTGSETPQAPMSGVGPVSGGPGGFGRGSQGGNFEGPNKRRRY

[2] = molecular target: TCP1-alpha (Homo sapiens) (UniProt P17987); settings: 5-10-5 gapmer, 2'-MOE wings 1-5 and 16-20, 2'-deoxy gap, all C 5mC, full PS; specific PS-ASO association, western confirmed; protein in an extract; protein details: HeLa cell extract; label: 5' biotin-TEG (386652), none (116847); synthetic backbone
NCL1 (Homo sapiens) = NCL1 (Homo sapiens) (UniProt P19338); settings: 5-10-5 gapmer, 2'-MOE wings 1-5 and 16-20, 2'-deoxy gap, all C 5mC, full PS; specific PS-ASO association, western confirmed; protein in an extract; protein details: HeLa cell extract; label: 5' biotin-TEG (386652), none (116847); synthetic backbone
hnRNPK (Homo sapiens) = hnRNPK (Homo sapiens) (UniProt P61978); settings: 5-10-5 gapmer, 2'-MOE wings 1-5 and 16-20, 2'-deoxy gap, all C 5mC, full PS; specific PS-ASO association, western confirmed; protein in an extract; protein details: HeLa cell extract; label: 5' biotin-TEG (386652), none (116847); synthetic backbone
RNaseH1 (Homo sapiens) = molecular target: T3, RNaseH1 (Homo sapiens) (UniProt O60930); settings: full PS, protein in an extract, protein details: HeLa cell extract
T3 sequence (looked up, limits assumed): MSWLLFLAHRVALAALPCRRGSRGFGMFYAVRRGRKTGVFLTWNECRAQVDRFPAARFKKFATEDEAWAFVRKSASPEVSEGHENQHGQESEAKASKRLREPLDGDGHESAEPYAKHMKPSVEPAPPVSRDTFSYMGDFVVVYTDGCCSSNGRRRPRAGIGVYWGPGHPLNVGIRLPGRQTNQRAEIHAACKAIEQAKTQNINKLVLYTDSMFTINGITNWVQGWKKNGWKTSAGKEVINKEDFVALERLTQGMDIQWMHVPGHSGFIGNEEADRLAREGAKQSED

KCTD12 (Homo sapiens) = KCTD12 (Homo sapiens) (UniProt Q96CX2); settings: 5-10-5 gapmer, 2'-MOE wings 1-5 and 16-20, 2'-deoxy gap, all C 5mC, full PS; specific PS-ASO association, western confirmed; protein in an extract; protein details: HeLa cell extract; label: 5' biotin-TEG (386652), none (116847); synthetic backbone
PSF (Homo sapiens) = PSF (Homo sapiens) (UniProt P23246); settings: full PS, protein in an extract, protein details: HeLa cell extract
[3] = molecular target: PC4 (SUB1) (Homo sapiens) (UniProt P53999); settings: full PS, protein in an extract, protein details: HeLa cell extract
Ku70 (Homo sapiens) = Ku70 (Homo sapiens) (UniProt P12956); settings: full PS, protein in an extract, protein details: HeLa cell extract
La (SSB) (Homo sapiens) = La (SSB) (Homo sapiens) (UniProt P05455); settings: 5-10-5 gapmer, 2'-MOE wings 1-5 and 16-20, 2'-deoxy gap, all C 5mC, full PS; specific PS-ASO association, western confirmed; protein in an extract; protein details: HeLa cell extract; label: 5' biotin-TEG (386652), none (116847); synthetic backbone
TCP1-beta (Homo sapiens) = molecular target: T4, TCP1-beta (Homo sapiens) (UniProt P78371); settings: full PS, protein in an extract, protein details: HeLa cell extract
T4 sequence (looked up, limits assumed): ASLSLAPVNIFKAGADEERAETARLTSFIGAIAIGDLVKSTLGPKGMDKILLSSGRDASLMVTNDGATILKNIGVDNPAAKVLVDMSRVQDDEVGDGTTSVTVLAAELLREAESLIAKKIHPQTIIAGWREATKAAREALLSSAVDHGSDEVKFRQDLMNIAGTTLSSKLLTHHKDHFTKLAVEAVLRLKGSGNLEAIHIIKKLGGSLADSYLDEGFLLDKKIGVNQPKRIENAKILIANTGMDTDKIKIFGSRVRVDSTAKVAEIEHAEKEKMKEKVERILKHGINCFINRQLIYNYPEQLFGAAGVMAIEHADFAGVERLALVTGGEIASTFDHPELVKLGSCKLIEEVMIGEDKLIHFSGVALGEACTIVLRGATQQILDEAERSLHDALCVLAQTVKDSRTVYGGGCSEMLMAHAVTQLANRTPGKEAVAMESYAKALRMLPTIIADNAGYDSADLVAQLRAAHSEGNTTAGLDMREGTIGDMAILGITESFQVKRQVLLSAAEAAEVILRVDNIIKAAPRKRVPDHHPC

Ku80 (Homo sapiens) = Ku80 (Homo sapiens) (UniProt P13010); settings: full PS, protein in an extract, protein details: HeLa cell extract
ATAD3A (Homo sapiens) = molecular target: T5, ATAD3A (Homo sapiens) (UniProt Q9NVI7); settings: full PS, protein in an extract, protein details: HeLa cell extract
T5 sequence (looked up, limits assumed): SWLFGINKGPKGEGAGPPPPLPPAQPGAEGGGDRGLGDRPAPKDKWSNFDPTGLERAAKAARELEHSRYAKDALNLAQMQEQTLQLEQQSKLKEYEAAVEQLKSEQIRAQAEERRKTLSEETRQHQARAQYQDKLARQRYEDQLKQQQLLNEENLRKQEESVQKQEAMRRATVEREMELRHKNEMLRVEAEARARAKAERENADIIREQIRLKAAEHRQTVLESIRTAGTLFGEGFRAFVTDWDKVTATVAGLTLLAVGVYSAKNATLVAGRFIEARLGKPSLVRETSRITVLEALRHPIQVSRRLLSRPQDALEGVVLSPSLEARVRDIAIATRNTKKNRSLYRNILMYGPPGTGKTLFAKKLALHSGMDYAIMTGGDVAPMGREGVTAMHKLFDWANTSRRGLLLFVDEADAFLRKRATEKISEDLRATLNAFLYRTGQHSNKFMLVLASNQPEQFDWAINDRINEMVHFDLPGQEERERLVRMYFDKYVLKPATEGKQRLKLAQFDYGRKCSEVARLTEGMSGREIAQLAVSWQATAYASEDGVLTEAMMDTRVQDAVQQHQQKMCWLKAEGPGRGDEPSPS

[4] = 5-10-5 gapmer, 2'-MOE wings 1-5 and 16-20, 2'-deoxy gap, all C 5mC, samples 1 and 2, label: 5' biotin-TEG (386652), none (116847), synthetic backbone
[5] = strand 1 5-10-5 MOE gapmer, 5mC, strand 2 first 7 nt RNA, rest 2'-OMe, PO, sample 2, duplex, label: 5' biotin on XL180

Measured: binding result

CTGCTAGCCTCTGGATTTGA [Isis 386652 / 116847 (PS/MOE)]
binds: ANXA2 (Homo sapiens) | P54nrb (Homo sapiens); [4] | NPM1 (Homo sapiens) | [1] | VARS (Homo sapiens); [4] | PSPC1 (Homo sapiens) | [2] | NCL1 (Homo sapiens) | hnRNPK (Homo sapiens) | RNaseH1 (Homo sapiens); [4] | KCTD12 (Homo sapiens) | PSF (Homo sapiens); [4] | [3]; [4] | Ku70 (Homo sapiens); [4] | La (SSB) (Homo sapiens) | TCP1-beta (Homo sapiens); [4] | Ku80 (Homo sapiens); 5-10-5 gapmer, 2'-MOE wings 1-5 and 16-20, 2'-deoxy gap, all C 5mC, samples 1 and 2, capture ASO 451104 or 386652, eluted by 116847, label: 5' biotin-TEG (386652), none (116847), synthetic backbone | ATAD3A (Homo sapiens); [4]

CTGCTAGCCTCTGGATTTGA / AGCAGUUCUCAAAUCCAGAGGCUAGCAG [Isis 116847 / XL180 duplex]
binds: P54nrb (Homo sapiens); [5] | VARS (Homo sapiens); [5] | RNaseH1 (Homo sapiens); [5] | PSF (Homo sapiens); [5] | [3]; [5] | Ku70 (Homo sapiens); [5] | TCP1-beta (Homo sapiens); [5] | Ku80 (Homo sapiens); strand 1 5-10-5 MOE gapmer, 5mC, strand 2 first 7 nt RNA, rest 2'-OMe, PO, sample 2, duplex, RNase I elution, label: 5' biotin on XL180 | ATAD3A (Homo sapiens); [5]
